Laboratory results: publication doi:10.1101/2025.10.15.682724
No constants are given. Whether binding was seen depends on the method and setting. In cells and extracts the contact can be indirect. Some binding calls cover weakened binding; strength is not graded here.

Chains of the proteins cited; added tags and fusions are not shown.
UniProt Q92597: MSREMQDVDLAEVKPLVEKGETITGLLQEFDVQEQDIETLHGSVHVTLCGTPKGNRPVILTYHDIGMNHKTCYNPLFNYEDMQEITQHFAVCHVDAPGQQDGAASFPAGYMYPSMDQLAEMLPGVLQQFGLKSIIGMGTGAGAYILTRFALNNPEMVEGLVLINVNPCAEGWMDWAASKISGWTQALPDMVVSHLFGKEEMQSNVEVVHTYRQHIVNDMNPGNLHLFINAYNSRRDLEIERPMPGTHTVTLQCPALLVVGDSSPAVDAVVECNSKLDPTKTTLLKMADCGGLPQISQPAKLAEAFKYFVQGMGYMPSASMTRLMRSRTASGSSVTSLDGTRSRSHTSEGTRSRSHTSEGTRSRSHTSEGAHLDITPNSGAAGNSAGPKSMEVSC
UniProt Q8WUM4: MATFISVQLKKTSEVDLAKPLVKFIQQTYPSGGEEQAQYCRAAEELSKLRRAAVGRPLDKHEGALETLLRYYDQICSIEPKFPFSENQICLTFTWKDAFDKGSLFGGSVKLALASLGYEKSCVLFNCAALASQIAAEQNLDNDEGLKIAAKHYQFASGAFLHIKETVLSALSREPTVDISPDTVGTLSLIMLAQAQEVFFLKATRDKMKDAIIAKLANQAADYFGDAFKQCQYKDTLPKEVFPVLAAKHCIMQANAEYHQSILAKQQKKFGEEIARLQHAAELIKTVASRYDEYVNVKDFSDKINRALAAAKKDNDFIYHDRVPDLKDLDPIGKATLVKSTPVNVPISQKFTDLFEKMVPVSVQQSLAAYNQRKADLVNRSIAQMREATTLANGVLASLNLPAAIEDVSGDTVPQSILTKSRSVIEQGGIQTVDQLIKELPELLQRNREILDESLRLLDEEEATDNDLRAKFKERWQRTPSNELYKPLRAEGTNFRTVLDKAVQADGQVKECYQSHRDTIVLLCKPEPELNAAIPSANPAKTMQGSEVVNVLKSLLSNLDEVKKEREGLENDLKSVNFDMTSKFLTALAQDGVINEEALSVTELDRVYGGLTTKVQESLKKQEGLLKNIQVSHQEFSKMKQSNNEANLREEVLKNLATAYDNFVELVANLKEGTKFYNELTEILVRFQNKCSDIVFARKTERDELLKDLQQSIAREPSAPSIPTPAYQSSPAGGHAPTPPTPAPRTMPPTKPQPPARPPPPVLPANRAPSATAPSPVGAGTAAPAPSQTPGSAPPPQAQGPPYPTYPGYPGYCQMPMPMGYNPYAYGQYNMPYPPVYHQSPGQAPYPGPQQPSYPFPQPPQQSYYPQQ

Target: N-myc downstream-regulated gene 1 (NDRG1), wild type, stably overexpressed in MIAPaCa-2 cells (UniProt Q92597)
Experiment: co-IP

ALG-2-interacting protein X (ALIX) (from UniProt Q8WUM4 1-868)
binding: binds
